Kd data for two sequences are collected here from paper PMC5062617, “Nop9 is a PUF-like protein that prevents premature cleavage to correctly process pre-18S rRNA”.

Tags and fusion partners may be left off the protein sequences shown.

The term Kd denotes the free concentration of one partner at which half of the binding sites on the other are occupied at equilibrium, for simple one-to-one binding.

This data set concerns the target T1, Nop9 (46-645) (Saccharomyces cerevisiae) (UniProt P47077).
T1 sequence (looked up): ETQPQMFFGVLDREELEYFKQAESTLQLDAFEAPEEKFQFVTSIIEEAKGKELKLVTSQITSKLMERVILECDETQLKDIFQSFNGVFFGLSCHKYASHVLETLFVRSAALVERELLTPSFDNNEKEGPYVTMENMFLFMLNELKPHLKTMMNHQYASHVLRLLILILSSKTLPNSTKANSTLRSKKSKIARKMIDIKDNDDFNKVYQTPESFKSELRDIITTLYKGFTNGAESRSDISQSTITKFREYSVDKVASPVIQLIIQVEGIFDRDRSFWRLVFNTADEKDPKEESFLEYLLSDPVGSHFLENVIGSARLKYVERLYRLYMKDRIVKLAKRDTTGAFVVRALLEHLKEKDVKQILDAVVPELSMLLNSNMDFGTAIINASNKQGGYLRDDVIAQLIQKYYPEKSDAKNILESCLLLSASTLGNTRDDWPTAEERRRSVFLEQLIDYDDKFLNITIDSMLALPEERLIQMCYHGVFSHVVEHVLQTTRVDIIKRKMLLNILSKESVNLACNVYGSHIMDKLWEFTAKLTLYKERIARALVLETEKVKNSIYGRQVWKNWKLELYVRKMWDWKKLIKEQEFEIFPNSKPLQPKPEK
Briefly: EMSA. The following applies: EMSA: 10 mM HEPES, 150 mM NaCl, 0.01% Tween-20, 0.1 mg/ml BSA, 1 mM TCEP, 4 °C, 40 min, RNA <50 pM, recombinant protein, residues 46-645, label: 5' 32P.

AAGAAAUUUAAUAAUU [Subdomain A 1-16]: the Kd is greater than 1000 nM. With “GGUUGAAAAUGGAUUUUUUUGUUUUAUAGGACAAUUAAAACCGUUUCAA [Subdomain A Δ5'1-16]”, the dissociation constant Kd (letters put together from the description) was greater than 1000 nM.
